Biological target: T1, Amine oxidase [flavin-containing] B (Rattus norvegicus, UniProt P19643)
T1 sequence (P19643 whole entry): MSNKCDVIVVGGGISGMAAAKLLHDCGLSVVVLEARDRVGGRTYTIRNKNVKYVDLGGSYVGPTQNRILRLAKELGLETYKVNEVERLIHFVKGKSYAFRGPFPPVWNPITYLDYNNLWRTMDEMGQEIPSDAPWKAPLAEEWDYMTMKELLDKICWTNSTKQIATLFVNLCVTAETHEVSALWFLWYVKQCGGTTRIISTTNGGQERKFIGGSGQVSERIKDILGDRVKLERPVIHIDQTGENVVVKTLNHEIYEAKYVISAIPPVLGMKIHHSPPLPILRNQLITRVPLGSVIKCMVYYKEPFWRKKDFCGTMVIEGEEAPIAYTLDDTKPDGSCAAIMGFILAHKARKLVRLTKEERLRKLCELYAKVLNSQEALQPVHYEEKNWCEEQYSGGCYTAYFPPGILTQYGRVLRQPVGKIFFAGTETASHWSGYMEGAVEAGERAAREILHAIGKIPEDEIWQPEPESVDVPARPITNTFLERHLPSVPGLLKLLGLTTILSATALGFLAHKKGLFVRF

Row | SMILES | IC50 [µM]
1 | O=c1cc(-c2ccccc2)c2ccc(OCc3ccccc3)cc2o1 | 3.98
2 | O=c1oc2cc(OCc3ccccc3)ccc2c2c1CCCC2 | 0.0135

— ChEMBL document CHEMBL1137393, “Impact of species-dependent differences on screening, design, and development of MAO B inhibitors” (J Med Chem, 2006)
